# Measurements as given in PubChem BioAssay AID1487 (National Center for Advancing Translational Sciences (NCATS), 2009).
# “And” between values parts separate entries of the source, which are not always exact repeats. Equal entries are not always repeated. The list shows a part of the results. Further columns of the screen follow, without active or inactive calls. Most of these compounds were active or inconclusive in the main read-out, so they are no random draw. The note in brackets gives the kind of curve behind each potency; many fits are weak.
# Test: qHTS Assay for Modulators of Lamin A Splicing
# Conditions: HeLa LMNA splicing GFP/RFP minigene ratio, 48 h
# Outline: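 S3 HeLa stable clones carrying a lamin A-EGFP splicing minigene plus DsRed2 were seeded at 600 cells/well in Opti-MEM with 2% FBS, pin-dosed and incubated 48 h at 37°C. Acumen cytometry (488 nm) gave the GFP/RFP total-intensity ratio.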
# [1] = measured here: GFP splicing reporter channel
# [2] = measured here: RFP viability control channel
Structure (SMILES),AC50 [1],AC50 [2]
OC(CNCC1CCCO1)Cn1c2ccc(Br)cc2c2cc(Br)ccc21 (configuration not stated),"35.5 µM [falling, single point]","35.5 µM [falling, single point]"
Cc1ccc(S(=O)(=O)c2cccc(S(=O)(=O)N3CCCC3)c2)cc1S(=O)(=O)N1CCCC1,"5.62 µM [rising, single point]","4.47 µM [rising, full curve]"
OC(CN1C2=NCCN2c2ccccc21)c1ccc2c(c1)OCO2 (configuration not stated),"12.6 µM [rising, partial curve, poor fit]","14.1 µM [rising, partial curve]"
Brc1ccccc1OCCOc1cccc2cccnc12,–,"31.6 µM [rising, single point]"
CCN(CC)c1ccc2cc(-c3nnc(Nc4ccc(C)cc4)s3)c(=O)oc2c1,"0.447 µM [rising, full curve]",–
Cc1cc(C)c(S(=O)(=O)NCc2ccc3c(c2)CCN3C(=O)c2ccccc2)c(C)c1,"35.5 µM [falling, single point]",–
CCCC1=[N+](CC(=O)c2ccccc2)CCn2cccc21,"12.6 µM [rising, single point]","28.2 µM [rising, single point]"
COc1ccc(-c2cc(C(=O)N3CCN(C(c4ccccc4)c4ccccc4)CC3)no2)cc1OC,"7.94 µM [rising, partial curve, poor fit]","14.1 µM [rising, partial curve, poor fit]"
COCCNC(=S)NNC(=O)c1cccs1,–,"0.0447 µM [falling, full curve, poor fit]"
COc1ccc(C(=O)Nc2ccc(S(=O)(=O)Nc3cc(C)nc(C)n3)cc2)cc1OC,"0.631 µM [falling, partial curve, poor fit]",–
COc1ccc(CN2CCN(Cc3cccc4nonc34)CC2CCO)c(C)c1C (configuration not stated),–,"1.41 µM [falling, full curve, poor fit]"
Cc1c(Br)c(C(=O)NCc2cc3cc(Cl)ccc3[nH]2)nn1C,–,"12.6 µM [rising, single point]"
O=C(N/N=C/c1ccc(OC(F)F)cc1)c1cccc(S(=O)(=O)N2CCOCC2)c1,"3.98 µM [falling, partial curve, poor fit]","6.31 µM [falling, partial curve]"
Cc1ccc(-n2ncc3c(Nc4ccc(Oc5ccccc5)cc4)ncnc32)c(C)c1,–,"6.31 µM [falling, partial curve, poor fit]"
CCOC(=O)C1CCCN(C(=O)C2CCN(c3nnc(-n4cccc4)s3)CC2)C1 (configuration not stated),–,"0.0891 µM [falling, single point]"
Clc1cccc(CN2COc3c(cc(Cl)c4cccnc34)C2)c1,–,"35.5 µM [rising, single point]"

# A different layout for two compounds above:
Structure (SMILES) | AC50 [1] | AC50 [2]
COc1ccc(CN2CCN(Cc3cccc4nonc34)CC2CCO)c(C)c1C (configuration not stated) | – | 1.41 µM [falling, full curve, poor fit]
Cc1c(Br)c(C(=O)NCc2cc3cc(Cl)ccc3[nH]2)nn1C | – | 12.6 µM [rising, single point]

# The listing continues.

Structure (SMILES),AC50 [1],AC50 [2]
CC(C)c1ccc2[nH]c(O)c(N=NC(=O)c3cccc(S(=O)(=O)N4CCCCC4)c3)c2c1,"1.26 µM [rising, full curve]","15.8 µM [rising, partial curve, poor fit]"
Cc1ccc(NC(=O)NC2=NN(c3ccccc3)C(=O)/C2=C2/CCCN2C)cc1,–,"12.6 µM [rising, partial curve, poor fit]"
Cc1cc(Nc2cccc(C(F)(F)F)c2)nc2ccc(NC(=O)Cc3ccc(Cl)cc3)cc12,"22.4 µM [falling, partial curve]","35.5 µM [falling, single point]"
CCOC(=O)N1CCN(S(=O)(=O)c2ccc(C)cc2)C1c1ccc(OC)cc1 (configuration not stated),–,"22.4 µM [rising, single point]"
Cc1cc(=O)n(Cc2cccc(Cl)c2)c2c1c(C)nn2C,–,"0.00316 µM [falling, full curve, poor fit]"
COc1ccc(OC)c(NS(=O)(=O)c2ccc(NC(=O)c3ccc(NS(C)(=O)=O)cc3)cc2)c1,"8.91 µM [rising, partial curve]","14.1 µM [rising, partial curve]"
O=C1CC(SC(=Nc2ccccc2)Nc2ccccc2)C(=O)N1c1cccc(Cl)c1 (configuration not stated),"35.5 µM [falling, single point]","35.5 µM [falling, single point]"
CC(C)(C)NC(=O)[C@@H]1C[C@@H]2CCCC[C@@H]2CN1C[C@@H](O)[C@H](Cc1ccccc1)NC(=O)[C@H](CC(N)=O)NC(=O)c1ccc2ccccc2n1,"14.1 µM [rising, partial curve]","12.6 µM [rising, partial curve]"
Cc1nn(Cc2ccc(Cl)cc2)c(C)c1NC(=O)/C=C/c1cnn(C)c1,"10 µM [rising, partial curve]","11.2 µM [rising, partial curve]"
CCC(c1nnnn1CCOC)N1CCN(c2nc3ccccc3s2)CC1 (configuration not stated),–,"1.12 µM [falling, partial curve]"
CCCCCN(CCCCC)C(=O)C(CCC(=O)O)NC(=O)c1ccc(Cl)c(Cl)c1 (configuration not stated),"35.5 µM [falling, single point]","35.5 µM [falling, single point] and 63.1 nM [rising, full curve, poor fit]"
CN1CCN(C(=O)c2ccc3c(=O)n4c(nc3c2)CCCCC4)CC1,–,"0.178 µM [falling, full curve, poor fit]"
COc1ccc(-n2nc(C(=O)NCC(=O)Nc3cccc(NC(C)=O)c3)c3ccccc3c2=O)cc1,"0.158 µM [falling, full curve, poor fit]",–
CCCc1ccc(OCC(=O)Nc2cc(S(=O)(=O)CC)ccc2O)cc1,"11.2 µM [falling, single point]","5.62 µM [falling, partial curve]"
O=C(CC1(O)C(=O)Nc2ccccc21)c1ccc(-n2cnnn2)cc1 (configuration not stated),"0.501 µM [rising, single point]","0.631 µM [rising, single point]"
COc1cc(C2C(C(=O)/C=C/c3ccccc3)=C(O)C(=O)N2c2ccccn2)ccc1O (configuration not stated),"12.6 µM [falling, single point]",–
